Conditions: Propylenglykol (between 1.00 and 10.00%), 60°C, one week, in the dark; 10080 min

Structure (SMILES): CCN(CC)C(=O)N[C@H]1C=C2c3cccc4[nH]cc(c34)C[C@H]2N(C)C1 [Lisuridhydrogenmaleat]
- verbliebener Wirkstoffgehalt: 92.5%

Reference: patent publication EP1972333A1, “Stabilised aqueous solutions of ergolin compounds” (Axxonis Pharma AG, priority 2007, dated 2008)
